# Assay results reported in patent US20230242871A1, “GENERATION OF PRIMORDIAL GERM CELLS AND METHODS OF USING THE SAME” (The Board of Trustees of the Leland Stanfor Junior …, priority 2020, published 2023).
# Assays:
# Test in all cases: High-throughput cell-surface marker screening (LEGENDScreen), %PE+
# Assay type in all cases: cell-based, human
# Conditions in all cases: percentage of cells bound to the PE-conjugated antibody (LEGENDScreen)
# [1] = tested on: D3.5 SOX17-GFP- non-PGCs
# [2] = tested on: undifferentiated hPSC (D0)
# [3] = tested on: D3.5 SOX17-GFP+ PGCs
Molecule,% PE+ in non-PGCs [1] [%],% PE+ in H1 UD [2] [%],% PE+ in PGCs [3] [%]
"CD179b (protein, UniProt P15814 38-213, looked up) Immunoglobulin lambda-like …: LLRPTAASQSRALGPGAPGGSSRSSLRSRWGRFLLQRGSWTGPRCWPRGFQSKHNSVTHVFGSGTQLTVLSQPKATPSVTLFPPSSEELQANKATLVCLMNDFYPGILTVTWKADGTPITQGVEMTTPSKQSNNKYAASSYLSLTPEQWRSRRSYSCQVMHEGSTVEKTVAPAECS",0.0001117,0.1,0
"CD164 (protein, UniProt Q04900 24-197, looked up) Sialomucin core protein 24: DKNTTQHPNVTTLAPISNVTSAPVTSLPLVTTPAPETCEGRNSCVSCFNVSVVNTTCFWIECKDESYCSHNSTVSDCQVGNTTDFCSVSTATPVPTANSTAKPTVQPSPSTTSKTVTTSGTTNNTVTPTSQPVRKSTFDAASFIGGIVLVLGVQAVIFFLYKFCKSKERNYHTL",0.5852,99.3,0.3723
"CD180 (protein, UniProt Q99467 24-661, looked up) CD180 antigen: WDQMCIEKEANKTYNCENLGLSEIPDTLPNTTEFLEFSFNFLPTIHNRTFSRLMNLTFLDLTRCQINWIHEDTFQSHHQLSTLVLTGNPLIFMAETSLNGPKSLKHLFLIQTGISNLEFIPVHNLENLESLYLGSNHISSIKFPKDFPARNLKVLDFQNNAIHYISREDMRSLEQAINLSLNFNGNNVKGIELGAFDSTIFQSLNFGGTPNLSVIFNGLQNSTTQSLWLGTFEDIDDEDISSAMLKGLCEMSVESLNLQEHRFSDISSTTFQCFTQLQELDLTATHLKGLPSGMKGLNLLKKLVLSVNHFDQLCQISAANFPSLTHLYIRGNVKKLHLGVGCLEKLGNLQTLDLSHNDIEASDCCSLQLKNLSHLQTLNLSHNEPLGLQSQAFKECPQLELLDLAFTRLHINAPQSPFQNLHFLQVLNLTYCFLDTSNQHLLAGLPVLRHLNLKGNHFQDGTITKTNLLQTVGSLEVLILSSCGLLSIDQQAFHSLGKMSHVDLSHNSLTCDSIDSLSHLKGIYLNLAANSINIISPRLLPILSQQSTINLSHNPLDCTCSNIHFLTWYKENLHKLEGSEETTCANPPSLRGVKLSDVKLSCGITAIGIFFLIVFLLLLAILLFFAVKYLLRWKYQHI",1.582E-05,0.13,0
"CD1b (protein, UniProt P29016 18-333, looked up) T-cell surface glycoprotein …: SEHAFQGPTSFHVIQTSSFTNSTWAQTQGSGWLDDLQIHGWDSDSGTAIFLKPWSKGNFSDKEVAELEEIFRVYIFGFAREVQDFAGDFQMKYPFEIQGIAGCELHSGGAIVSFLRGALGGLDFLSVKNASCVPSPEGGSRAQKFCALIIQYQGIMETVRILLYETCPRYLLGVLNAGKADLQRQVKPEAWLSSGPSPGPGRLQLVCHVSGFYPKPVWVMWMRGEQEQQGTQLGDILPNANWTWYLRATLDVADGEAAGLSCRVKHSSLEGQDIILYWRNPTSIGSIVLAIIVPSLLLLLCLALWYMRRRSYQNIP",0.0005789,0.31,0
"CD194 (protein, UniProt P51679 1-360, looked up) C-C chemokine receptor type 4: MNPTDIADTTLDESIYSNYYLYESIPKPCTKEGIKAFGELFLPPLYSLVFVFGLLGNSVVVLVLFKYKRLRSMTDVYLLNLAISDLLFVFSLPFWGYYAADQWVFGLGLCKMISWMYLVGFYSGIFFVMLMSIDRYLAIVHAVFSLRARTLTYGVITSLATWSVAVFASLPGFLFSTCYTERNHTYCKTKYSLNSTTWKVLSSLEINILGLVIPLGIMLFCYSMIIRTLQHCKNEKKNKAVKMIFAVVVLFLGFWTPYNIVLFLETLVELEVLQDCTFERYLDYAIQATETLAFVHCCLNPIIYFFLGEKFRKYILQLFKTCRGLFVLCQYCGLLQIYSADTPSSSYTQSTMDHDLHDAL",0.004667,0.46,0.006234
"CD150 (protein, UniProt Q13291 21-335, looked up) Signaling lymphocytic …: ASYGTGGRMMNCPKILRQLGSKVLLPLTYERINKSMNKSIHIVVTMAKSLENSVENKIVSLDPSEAGPPRYLGDRYKFYLENLTLGIRESRKEDEGWYLMTLEKNVSVQRFCLQLRLYEQVSTPEIKVLNKTQENGTCTLILGCTVEKGDHVAYSWSEKAGTHPLNPANSSHLLSLTLGPQHADNIYICTVSNPISNNSQTFSPWPGCRTDPSETKPWAVYAGLLGGVIMILIMVVILQLRRRGKTNHYQTTVEKKSLTIYAQVQKPGPLQKKLDSFPAQDPCTTIYVAATEPVPESVQETNSITVYASVTLPES",0,0.022,0
"CD166 (protein, UniProt Q13740 28-583, looked up) CD166 antigen: WYTVNSAYGDTIIIPCRLDVPQNLMFGKWKYEKPDGSPVFIAFRSSTKKSVQYDDVPEYKDRLNLSENYTLSISNARISDEKRFVCMLVTEDNVFEAPTIVKVFKQPSKPEIVSKALFLETEQLKKLGDCISEDSYPDGNITWYRNGKVLHPLEGAVVIIFKKEMDPVTQLYTMTSTLEYKTTKADIQMPFTCSVTYYGPSGQKTIHSEQAVFDIYYPTEQVTIQVLPPKNAIKEGDNITLKCLGNGNPPPEEFLFYLPGQPEGIRSSNTYTLTDVRRNATGDYKCSLIDKKSMIASTAITVHYLDLSLNPSGEVTRQIGDALPVSCTISASRNATVVWMKDNIRLRSSPSFSSLHYQDAGNYVCETALQEVEGLKKRESLTLIVEGKPQIKMTKKTDPSGLSKTIICHVEGFPKPAIQWTITGSGSVINQTEESPYINGRYYSKIIISPEENVTLTCTAENQLERTVNSLNVSAISIPEHDEADEISDENREKVNDQAKLIVGIVVGLLLAALVAGVVYWLYMKKSKTASKHVNKDLGNMEENKKLEENNHKTEA",0.7401,99.8,0.8099
"CD156c (protein, UniProt O14672 214-748, looked up) Disintegrin and …: TTSAEKNTCQLYIQTDHLFFKYYGTREAVIAQISSHVKAIDTIYQTTDFSGIRNISFMVKRIRINTTADEKDPTNPFRFPNIGVEKFLELNSEQNHDDYCLAYVFTDRDFDDGVLGLAWVGAPSGSSGGICEKSKLYSDGKKKSLNTGIITVQNYGSHVPPKVSHITFAHEVGHNFGSPHDSGTECTPGESKNLGQKENGNYIMYARATSGDKLNNNKFSLCSIRNISQVLEKKRNNCFVESGQPICGNGMVEQGEECDCGYSDQCKDECCFDANQPEGRKCKLKPGKQCSPSQGPCCTAQCAFKSKSEKCRDDSDCAREGICNGFTALCPASDPKPNFTDCNRHTQVCINGQCAGSICEKYGLEECTCASSDGKDDKELCHVCCMKKMDPSTCASTGSVQWSRHFSGRTITLQPGSPCNDFRGYCDVFMRCRLVDADGPLARLKKAIFSPELYENIAEWIVAHWWAVLLMGIALIMLMAGFIKICSVHTPSSNPKLPPPKPLPGTLKRRRPPQPIQQPQRQRPRESYQMGHMRR",0.9234,99.8,0.9838
"CD1c (protein, UniProt P29017 18-333, looked up) T-cell surface glycoprotein …: NADASQEHVSFHVIQIFSFVNQSWARGQGSGWLDELQTHGWDSESGTIIFLHNWSKGNFSNEELSDLELLFRFYLFGLTREIQDHASQDYSKYPFEVQVKAGCELHSGKSPEGFFQVAFNGLDLLSFQNTTWVPSPGCGSLAQSVCHLLNHQYEGVTETVYNLIRSTCPRFLLGLLDAGKMYVHRQVRPEAWLSSRPSLGSGQLLLVCHASGFYPKPVWVTWMRNEQEQLGTKHGDILPNADGTWYLQVILEVASEEPAGLSCRVRHSSLGGQDIILYWGHHFSMNWIALVVIVPLVILIVLVLWFKKHCSYQDIL",5.8313E-05,1.19,0
